Taken from: PubChem BioAssay AID1259308 (NCATS, 2017)
Here is an unselected part of about 59,000 reagents tested. Over the whole deposit, about 1,510 (2.6%) got an active call. 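Calls use total luciferase alone and ignore viability, so some active siRNAs may act by altering cell number.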 The numbers tell different reagents against one gene apart. Further read-outs or replicates are left out here. Reagent sequences are not shown.

Test: 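Genes whose loss raises luciferase production in HEK293 cells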 (primary screen)
System: human HEK293 embryonic kidney cells stably expressing firefly luciferase (HEK-CMV-Luc2-Hygro)
Reagent: single siRNA against human genes, 0.8 pmol siRNA per well
Timing: 72 h
Read-out: 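Luciferase light (ONE-Glo) measured on one replicate plate set and viability (CellTiter-Glo) on the other, scaled to a negative control siRNA, with robust z-scores and luciferase per cell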
Reading the numbers: total luciferase, z-score and total luciferase, % of control: higher = more reporter protein produced; luciferase per cell, z-score: higher = more reporter output per viable cell
Rule for the call: 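Active when the median/MAD z-score for overall luciferase is greater than 3; a gene was taken forward for validation with new siRNAs if at least two of its three siRNAs passed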
Calls: active = raised luciferase; inactive = no rise

no.	target	reagent no.	total luciferase, z-score	total luciferase, % of control	luciferase per cell, z-score	Call
1	IPO5	1	-0.356	74.8	-0.145	inactive
2	IPO5	2	-0.593	70.1	-0.603	inactive
3	IPO5	3	-0.766	66.7	-0.953	inactive
4	GPX6	1	0.736	96.5	1.12	inactive
5	GPX6	2	0.292	87.7	0.525	inactive
6	GPX6	3	-0.812	65.7	-0.99	inactive
7	KCNA2	1	0.25	86.9	0.354	inactive
8	KCNA2	2	-0.285	76.2	-0.597	inactive
9	KCNA2	3	-1.06	60.9	0.0529	inactive

4 entries from above in another layout:
IPO5 #2
- total luciferase, z-score: -0.593
- total luciferase, % of control: 70.1
- luciferase per cell, z-score: -0.603
- Call: inactive

IPO5 #3
- total luciferase, z-score: -0.766
- total luciferase, % of control: 66.7
- luciferase per cell, z-score: -0.953
- Call: inactive

GPX6 #1
- total luciferase, z-score: 0.736
- total luciferase, % of control: 96.5
- luciferase per cell, z-score: 1.12
- Call: inactive

GPX6 #2
- total luciferase, z-score: 0.292
- total luciferase, % of control: 87.7
- luciferase per cell, z-score: 0.525
- Call: inactive

The list goes on:
no.	target	reagent no.	total luciferase, z-score	total luciferase, % of control	luciferase per cell, z-score	Call
10	MAGEE2	1	-0.409	73.7	-0.697	inactive
11	MAGEE2	2	0.658	95	0.328	inactive
12	MAGEE2	3	1.38	109	2.33	inactive
13	FERMT3	1	1.42	110	0.808	inactive
14	FERMT3	2	-0.75	67	-0.778	inactive
15	FERMT3	3	1.04	103	1.41	inactive
16	CCDC51	1	0.909	100	0.704	inactive
17	CCDC51	2	2.9	140	1.95	inactive
18	CCDC51	3	1.35	109	0.391	inactive
19	PRR23C	1	0.387	89.6	1.15	inactive
20	PRR23C	2	-0.141	79.1	0.0303	inactive
21	PRR23C	3	-0.56	70.7	-0.827	inactive
22	WBP1	1	0.0482	82.8	-0.202	inactive
23	WBP1	2	-1.07	60.5	0.0283	inactive
24	WBP1	3	-1.32	55.6	-1.45	inactive
